# Measured values from patent publication US20100240598A1, “PEPTIDES AND PEPTIDE MIMETICS TO INHIBIT THE ONSET AND/OR PROGRESSION OF FIBROTIC AND/OR PRE-FIBROTIC PATHOLOGIES” (THE REGENTS OF THE UNIVERSITY OF CALIFORNIA, priority 2009, published 2010).
# At least one structure is not confirmed: it was looked up by name or label, or the drawing left a doubt.
# System: ApoE null mice
# Assay: HDL function after D-4F and/or statin in drinking water for 24 hours
# Assay type: in vivo
# Settings: 0.05 mg/ml in drinking water for 24 hours
compound,measurement,value
"CC[C@H](C)C(=O)O[C@H]1C[C@H](O)C=C2C=C[C@H](C)[C@H](CC[C@@H](O)C[C@@H](O)CC(=O)O)[C@H]21 [pravastatin, reference compound]","HDL function, statin alone",did not improve HDL function
